In the supplement of paper PMC10849652:
The list shows a part of the results.

Amino acid sequences for entries named in this document (tags omitted). A change or cut given only in a name is not applied to a line headed by its entry.
UniProt P48029: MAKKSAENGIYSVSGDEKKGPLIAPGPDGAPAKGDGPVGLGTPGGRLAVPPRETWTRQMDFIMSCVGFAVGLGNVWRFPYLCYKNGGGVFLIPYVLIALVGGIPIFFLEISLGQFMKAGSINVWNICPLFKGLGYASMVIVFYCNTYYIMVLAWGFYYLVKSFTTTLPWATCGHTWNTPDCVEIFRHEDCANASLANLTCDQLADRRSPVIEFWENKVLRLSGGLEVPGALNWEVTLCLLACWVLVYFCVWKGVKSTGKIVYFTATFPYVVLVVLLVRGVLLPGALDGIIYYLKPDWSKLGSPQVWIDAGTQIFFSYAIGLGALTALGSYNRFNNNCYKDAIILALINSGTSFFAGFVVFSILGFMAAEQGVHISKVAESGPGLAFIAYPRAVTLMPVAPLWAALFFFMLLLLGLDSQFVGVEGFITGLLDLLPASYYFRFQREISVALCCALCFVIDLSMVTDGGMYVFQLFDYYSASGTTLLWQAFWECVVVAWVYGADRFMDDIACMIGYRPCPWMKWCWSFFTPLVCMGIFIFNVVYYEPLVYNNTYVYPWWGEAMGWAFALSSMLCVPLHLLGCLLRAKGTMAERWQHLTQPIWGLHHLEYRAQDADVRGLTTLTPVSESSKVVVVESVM
UniProt Q8N2U9: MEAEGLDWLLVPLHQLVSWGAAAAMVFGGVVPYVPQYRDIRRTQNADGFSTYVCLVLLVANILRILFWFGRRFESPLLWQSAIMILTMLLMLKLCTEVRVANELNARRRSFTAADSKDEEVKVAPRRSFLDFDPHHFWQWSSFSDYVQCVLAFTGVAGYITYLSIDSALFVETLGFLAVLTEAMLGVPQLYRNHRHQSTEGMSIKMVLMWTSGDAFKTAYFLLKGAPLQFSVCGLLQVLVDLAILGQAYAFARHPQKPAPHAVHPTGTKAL
UniProt Q96AG3: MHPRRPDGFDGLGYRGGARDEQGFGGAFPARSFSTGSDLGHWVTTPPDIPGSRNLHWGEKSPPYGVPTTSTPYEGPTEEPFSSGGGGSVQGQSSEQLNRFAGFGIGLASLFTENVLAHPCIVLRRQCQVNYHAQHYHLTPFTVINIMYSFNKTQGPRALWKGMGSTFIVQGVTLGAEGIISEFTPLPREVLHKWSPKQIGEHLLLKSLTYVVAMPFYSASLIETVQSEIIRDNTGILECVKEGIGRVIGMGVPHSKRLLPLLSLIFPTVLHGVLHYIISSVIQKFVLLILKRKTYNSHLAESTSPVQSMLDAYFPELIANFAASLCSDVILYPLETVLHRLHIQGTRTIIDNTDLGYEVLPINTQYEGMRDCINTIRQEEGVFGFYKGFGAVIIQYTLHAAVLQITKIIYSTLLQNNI
UniProt F5GZS6: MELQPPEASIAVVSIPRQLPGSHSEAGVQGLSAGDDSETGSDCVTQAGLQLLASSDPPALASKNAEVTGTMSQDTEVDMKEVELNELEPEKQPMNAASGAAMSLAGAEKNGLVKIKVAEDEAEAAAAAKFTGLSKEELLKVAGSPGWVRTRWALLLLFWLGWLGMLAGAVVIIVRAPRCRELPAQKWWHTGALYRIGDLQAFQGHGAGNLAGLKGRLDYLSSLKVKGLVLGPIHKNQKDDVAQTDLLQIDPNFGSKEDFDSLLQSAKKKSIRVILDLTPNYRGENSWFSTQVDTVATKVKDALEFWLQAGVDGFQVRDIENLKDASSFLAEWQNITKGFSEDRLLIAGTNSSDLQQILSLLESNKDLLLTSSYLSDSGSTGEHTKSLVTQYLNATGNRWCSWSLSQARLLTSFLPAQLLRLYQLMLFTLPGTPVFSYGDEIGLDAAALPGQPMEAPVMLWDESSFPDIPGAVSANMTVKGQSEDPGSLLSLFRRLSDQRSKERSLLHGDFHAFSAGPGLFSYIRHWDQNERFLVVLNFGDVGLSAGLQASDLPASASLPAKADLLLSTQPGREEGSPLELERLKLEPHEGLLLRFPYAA
UniProt P53007, whole entry, looked up: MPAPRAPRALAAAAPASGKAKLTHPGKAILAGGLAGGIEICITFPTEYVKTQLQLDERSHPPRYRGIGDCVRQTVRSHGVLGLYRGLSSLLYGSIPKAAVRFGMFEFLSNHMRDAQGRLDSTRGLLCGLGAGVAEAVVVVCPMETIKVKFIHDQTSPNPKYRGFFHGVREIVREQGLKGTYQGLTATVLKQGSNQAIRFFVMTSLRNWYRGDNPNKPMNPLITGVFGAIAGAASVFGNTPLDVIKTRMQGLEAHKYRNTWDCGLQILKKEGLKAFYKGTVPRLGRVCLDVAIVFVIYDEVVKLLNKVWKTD
UniProt Q9Y2D2: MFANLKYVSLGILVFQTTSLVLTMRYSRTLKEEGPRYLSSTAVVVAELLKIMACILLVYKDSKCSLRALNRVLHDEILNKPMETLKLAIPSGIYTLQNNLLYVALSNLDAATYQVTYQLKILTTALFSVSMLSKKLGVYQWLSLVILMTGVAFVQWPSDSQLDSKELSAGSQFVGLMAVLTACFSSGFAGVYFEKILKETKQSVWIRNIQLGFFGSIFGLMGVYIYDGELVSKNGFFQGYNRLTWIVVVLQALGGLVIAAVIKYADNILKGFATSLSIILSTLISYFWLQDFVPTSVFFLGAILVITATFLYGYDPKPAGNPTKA
UniProt Q5BKX6: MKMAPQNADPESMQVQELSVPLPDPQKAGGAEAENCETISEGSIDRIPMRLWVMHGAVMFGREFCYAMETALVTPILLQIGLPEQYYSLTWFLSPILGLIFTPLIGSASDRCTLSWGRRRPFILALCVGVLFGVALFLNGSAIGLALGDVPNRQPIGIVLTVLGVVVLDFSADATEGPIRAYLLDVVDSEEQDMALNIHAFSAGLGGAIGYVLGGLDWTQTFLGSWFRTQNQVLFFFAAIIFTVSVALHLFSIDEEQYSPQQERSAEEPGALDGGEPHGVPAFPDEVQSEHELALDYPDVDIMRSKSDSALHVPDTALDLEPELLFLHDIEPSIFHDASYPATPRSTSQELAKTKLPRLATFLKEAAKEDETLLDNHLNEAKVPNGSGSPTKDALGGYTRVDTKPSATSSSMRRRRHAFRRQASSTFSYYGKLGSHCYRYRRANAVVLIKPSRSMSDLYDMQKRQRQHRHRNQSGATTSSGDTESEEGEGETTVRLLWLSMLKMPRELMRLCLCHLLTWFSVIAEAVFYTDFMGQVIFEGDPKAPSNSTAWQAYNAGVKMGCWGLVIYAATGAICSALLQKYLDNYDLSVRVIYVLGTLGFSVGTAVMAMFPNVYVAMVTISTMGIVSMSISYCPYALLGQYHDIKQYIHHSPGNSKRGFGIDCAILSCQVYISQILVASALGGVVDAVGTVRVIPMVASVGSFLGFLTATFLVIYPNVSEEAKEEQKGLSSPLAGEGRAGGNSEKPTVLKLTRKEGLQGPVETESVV
UniProt Q6XR72: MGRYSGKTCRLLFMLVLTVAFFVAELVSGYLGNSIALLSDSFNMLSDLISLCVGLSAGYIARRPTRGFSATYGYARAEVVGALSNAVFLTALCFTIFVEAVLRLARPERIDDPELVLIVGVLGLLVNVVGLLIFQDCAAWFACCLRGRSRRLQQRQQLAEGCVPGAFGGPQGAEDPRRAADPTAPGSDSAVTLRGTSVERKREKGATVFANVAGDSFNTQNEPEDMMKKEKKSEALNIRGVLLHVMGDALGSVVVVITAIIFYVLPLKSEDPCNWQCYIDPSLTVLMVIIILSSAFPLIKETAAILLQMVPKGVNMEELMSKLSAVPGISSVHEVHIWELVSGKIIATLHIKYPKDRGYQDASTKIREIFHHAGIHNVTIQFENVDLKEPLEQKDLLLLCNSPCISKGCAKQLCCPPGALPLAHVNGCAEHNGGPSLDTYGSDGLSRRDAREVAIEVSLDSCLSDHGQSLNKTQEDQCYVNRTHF
UniProt Q96A29: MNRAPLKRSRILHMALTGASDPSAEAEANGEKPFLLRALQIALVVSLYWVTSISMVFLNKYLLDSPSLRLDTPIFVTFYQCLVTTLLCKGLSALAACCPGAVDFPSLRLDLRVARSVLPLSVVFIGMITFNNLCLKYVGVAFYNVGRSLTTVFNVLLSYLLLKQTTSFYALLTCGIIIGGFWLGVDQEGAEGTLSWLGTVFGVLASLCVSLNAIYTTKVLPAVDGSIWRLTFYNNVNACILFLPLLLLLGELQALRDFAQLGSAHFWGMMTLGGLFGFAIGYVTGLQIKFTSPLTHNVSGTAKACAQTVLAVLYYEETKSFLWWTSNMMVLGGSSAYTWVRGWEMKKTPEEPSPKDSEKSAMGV
UniProt Q9Y2E8: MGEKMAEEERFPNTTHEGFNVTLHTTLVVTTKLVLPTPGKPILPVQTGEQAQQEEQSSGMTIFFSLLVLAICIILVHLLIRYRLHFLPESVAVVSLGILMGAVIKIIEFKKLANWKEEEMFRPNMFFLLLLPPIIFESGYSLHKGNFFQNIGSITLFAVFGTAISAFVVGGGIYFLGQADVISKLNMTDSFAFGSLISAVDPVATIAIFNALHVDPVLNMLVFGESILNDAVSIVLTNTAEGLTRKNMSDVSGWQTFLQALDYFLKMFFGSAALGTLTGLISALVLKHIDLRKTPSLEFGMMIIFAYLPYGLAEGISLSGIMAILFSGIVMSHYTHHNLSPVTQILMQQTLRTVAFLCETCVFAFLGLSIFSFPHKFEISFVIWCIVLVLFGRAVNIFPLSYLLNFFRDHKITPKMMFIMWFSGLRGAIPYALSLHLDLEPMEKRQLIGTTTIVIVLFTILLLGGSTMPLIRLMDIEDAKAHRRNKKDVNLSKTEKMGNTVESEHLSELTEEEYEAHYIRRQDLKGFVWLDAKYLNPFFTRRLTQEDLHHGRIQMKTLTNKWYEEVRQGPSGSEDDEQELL
UniProt Q9ULF5: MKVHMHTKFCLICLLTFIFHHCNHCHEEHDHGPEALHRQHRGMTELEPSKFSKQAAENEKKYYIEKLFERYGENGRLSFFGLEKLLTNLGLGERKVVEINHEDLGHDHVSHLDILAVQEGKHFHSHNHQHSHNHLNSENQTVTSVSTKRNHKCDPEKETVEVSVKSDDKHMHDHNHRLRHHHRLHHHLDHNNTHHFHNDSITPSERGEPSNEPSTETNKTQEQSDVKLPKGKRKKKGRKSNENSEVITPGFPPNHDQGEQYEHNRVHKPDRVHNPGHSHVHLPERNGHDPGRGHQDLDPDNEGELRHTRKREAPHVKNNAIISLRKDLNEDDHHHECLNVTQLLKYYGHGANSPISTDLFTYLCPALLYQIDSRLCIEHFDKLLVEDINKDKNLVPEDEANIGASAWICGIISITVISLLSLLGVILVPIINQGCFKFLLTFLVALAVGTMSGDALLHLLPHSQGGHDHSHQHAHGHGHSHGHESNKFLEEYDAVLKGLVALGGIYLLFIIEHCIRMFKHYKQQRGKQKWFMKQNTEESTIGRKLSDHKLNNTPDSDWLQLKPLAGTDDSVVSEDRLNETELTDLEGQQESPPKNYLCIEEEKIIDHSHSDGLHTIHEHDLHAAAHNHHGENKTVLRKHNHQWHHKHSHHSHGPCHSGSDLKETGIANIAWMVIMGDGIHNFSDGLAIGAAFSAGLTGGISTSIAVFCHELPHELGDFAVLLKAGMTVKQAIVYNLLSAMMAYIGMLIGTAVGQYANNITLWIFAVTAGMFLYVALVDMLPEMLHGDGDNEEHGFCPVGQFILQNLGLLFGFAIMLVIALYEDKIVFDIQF
UniProt O95391: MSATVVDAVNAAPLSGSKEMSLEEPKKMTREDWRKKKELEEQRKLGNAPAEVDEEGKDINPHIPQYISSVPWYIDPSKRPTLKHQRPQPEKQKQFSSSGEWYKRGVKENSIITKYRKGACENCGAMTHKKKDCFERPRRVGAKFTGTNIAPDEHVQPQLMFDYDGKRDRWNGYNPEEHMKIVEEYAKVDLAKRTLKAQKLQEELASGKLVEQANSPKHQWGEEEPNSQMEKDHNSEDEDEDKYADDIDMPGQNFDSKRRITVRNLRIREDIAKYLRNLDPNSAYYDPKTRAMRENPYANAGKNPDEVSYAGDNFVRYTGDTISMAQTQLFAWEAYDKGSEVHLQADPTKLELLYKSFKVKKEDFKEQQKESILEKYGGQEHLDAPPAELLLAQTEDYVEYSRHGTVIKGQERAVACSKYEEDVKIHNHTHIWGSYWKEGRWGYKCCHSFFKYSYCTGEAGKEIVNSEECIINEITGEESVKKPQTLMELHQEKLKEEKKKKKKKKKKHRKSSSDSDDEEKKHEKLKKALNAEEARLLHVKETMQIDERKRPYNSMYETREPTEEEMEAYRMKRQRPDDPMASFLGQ
UniProt Q9NQQ7: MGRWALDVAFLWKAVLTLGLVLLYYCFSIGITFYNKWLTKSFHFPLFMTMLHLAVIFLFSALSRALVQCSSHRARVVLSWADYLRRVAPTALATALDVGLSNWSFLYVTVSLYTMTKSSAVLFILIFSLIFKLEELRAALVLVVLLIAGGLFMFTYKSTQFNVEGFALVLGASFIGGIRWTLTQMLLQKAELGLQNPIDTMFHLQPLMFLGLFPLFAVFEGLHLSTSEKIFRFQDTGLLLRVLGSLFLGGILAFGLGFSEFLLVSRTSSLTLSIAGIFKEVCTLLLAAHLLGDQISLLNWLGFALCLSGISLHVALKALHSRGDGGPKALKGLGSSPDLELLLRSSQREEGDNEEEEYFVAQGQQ

Experiments:
Assay in all cases: log2 fold change, soluble protein after heating vs DMSO (PISA); higher = thermal stabilisation; K562 lysate, 10 uM; active = over 0.2 and 3.5 SD of the protein, either way, in both replicates (recomputed)
nilotinib = compound: Cc1cn(-c2cc(NC(=O)c3ccc(C)c(Nc4nccc(-c5cccnc5)n4)c3)cc(C(F)(F)F)c2)cn1 [nilotinib]
In short: (§1)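 Following dounce homogenisation of K562 pellets in PBS pH 7.4 with 1 mM MgCl2, crude extract at 1 mg/mL protein was incubated for 30 min with 10 μM compound. Aliquots were then heated for 3 min over 48°C-58°C and pooled, NP-40 was added to 0.5% at 4°C, and soluble protein was recovered as the supernatant at 21,000xg for 90 min. Channel-sum-equalised TMTpro 16plex LC-MS/MS quantified this protein. Each value, from duplicates, is a log-two fold change in thermal stability relative to solvent controls.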

[1] = compound: Cc1nc(Nc2n[nH]c3c2CN(C(=O)N[C@H](CN(C)C)c2ccccc2)C3(C)C)c2sccc2n1
In short: as §1

dasatinib = compound: Cc1nc(Nc2ncc(C(=O)Nc3c(C)cccc3Cl)s2)cc(N2CCN(CCO)CC2)n1 [dasatinib]
In short: as §1

[2] = compound: Cc1ncc(-c2ccnc(Nc3ccc(S(C)(=O)=O)cc3)n2)n1C(C)C
In short: as §1

[3] = compound: Cn1cc(-c2ccc3c(c2)CCN3C(=O)Cc2cccc(C(F)(F)F)c2)c2c(N)ncnc21
In short: as §1

quisinostat = compound: Cn1cc(CNCC2CCN(c3ncc(C(=O)NO)cn3)CC2)c2ccccc21 [quisinostat]
In short: as §1

tipifarnib = compound: Cn1cncc1[C@@](N)(c1ccc(Cl)cc1)c1ccc2c(c1)c(-c1cccc(Cl)c1)cc(=O)n2C [tipifarnib]
In short: as §1

[4] = compound: NC(=O)Nc1cc(-c2cccc(F)c2)sc1C(=O)N[C@H]1CCCNC1
In short: as §1

[5] = compound: NC(=O)c1cnc(N[C@@H]2CCCC[C@@H]2N)nc1Nc1cccc(-n2nccn2)c1
In short: as §1

[6] = compound: NC1(c2ccc(-c3nc4ccn5c(=O)[nH]nc5c4cc3-c3ccccc3)cc2)CCC1
In short: as §1

[7] = compound: NCC(=O)Nc1ccc(-n2nc(C(F)(F)F)cc2-c2ccc3c(ccc4ccccc43)c2)cc1
In short: as §1

vorinostat = compound: O=C(CCCCCCC(=O)Nc1ccccc1)NO [vorinostat]
In short: as §1

silmitasertib = compound: O=C(O)c1ccc2c(c1)nc(Nc1cccc(Cl)c1)c1ccncc12 [silmitasertib]
In short: as §1

[8] = compound: O=C1NC(=O)C(c2cnc3ccccn23)=C1c1cn2c3c(cc(F)cc13)CN(C(=O)N1CCCCC1)CC2
In short: as §1

entospletinib = compound: c1cn2cc(-c3ccc4cn[nH]c4c3)nc(Nc3ccc(N4CCOCC4)cc3)c2n1 [entospletinib]
In short: as §1

Measured: log2 fold change

SLC6A8 (UniProt P48029)
inactive: nilotinib 0.024 | [1] -0.038 | dasatinib -0.021 | [2] 0.045 | [3] -0.008 | quisinostat 0.006 | tipifarnib -0.063 | [4] -0.057 | [5] 0.021 | [6] -0.015 | [7] 0.086 | vorinostat -0.007 | silmitasertib 0.014 | [8] -0.059 | entospletinib -0.113

SLC66A2 (UniProt Q8N2U9)
inactive: nilotinib 0.09 | [1] 0.005 | dasatinib 0.053 | [2] -0.097 | [3] -0.064 | tipifarnib -0.029 | [5] 0.103 | [6] -0.127 | vorinostat 0.031 | silmitasertib 0.099 | entospletinib -0.003

SMAP (UniProt O00193)
inactive: nilotinib 0.005 | [1] -0.015 | dasatinib 0.127 | [2] 0.071 | [3] 0.013 | quisinostat 0.121 | tipifarnib 0.028 | [4] -0.071 | [5] 0.036 | [6] -0.032 | [7] -0.014 | vorinostat 0.046 | silmitasertib -0.051 | [8] -0.028 | entospletinib 0.001

SLC6A8 isoform 2 (UniProt P48029)
inactive: nilotinib 0.1 | [1] 0.085 | dasatinib 0.034 | [2] -0.019 | [3] -0.075 | quisinostat -0.153 | tipifarnib 0.001 | [4] 0.193 | [5] -0.058 | [6] -0.077 | [7] 0.02 | vorinostat 0.292 | silmitasertib -0.114 | [8] 0.059 | entospletinib -0.072

SLC39A8 (UniProt Q9C0K1)
inactive: nilotinib -0.011 | [1] 0.065 | [2] 0.038 | quisinostat -0.078 | tipifarnib 0.02 | [4] -0.008 | [5] 0.055 | [6] -0.023 | [7] -0.068 | vorinostat 0.03 | silmitasertib 0.027 | [8] -0.056 | entospletinib -0.04

SLC25A46 (UniProt Q96AG3)
inactive: nilotinib -0.05 | [1] -0.002 | dasatinib -0.065 | [2] -0.017 | [3] -0.01 | quisinostat -0.063 | tipifarnib 0.063 | [4] -0.011 | [5] 0.029 | [6] -0.019 | [7] -0.015 | vorinostat 0.126 | silmitasertib -0.007 | [8] 0.014 | entospletinib 0.012

SLC3A2 (UniProt F5GZS6)
inactive: nilotinib -0.114 | [1] -0.094 | dasatinib -0.008 | [2] -0.02 | [3] -0.038 | tipifarnib -0.035 | [5] -0.001 | [6] -0.03 | vorinostat -0.164 | silmitasertib -0.039 | entospletinib 0.086

SLC35F2 (UniProt Q8IXU6)
inactive: nilotinib 0.04 | [1] 0.053 | dasatinib 0.036 | [2] 0.052 | [3] 0.006 | tipifarnib -0.035 | [5] -0.02 | [6] -0.005 | [7] 0.009 | vorinostat 0.161 | silmitasertib -0.009 | entospletinib 0

SLC25A1 (UniProt P53007)
inactive: nilotinib 0.047 | [1] 0.037 | dasatinib 0.022 | [2] 0.016 | [3] -0.05 | quisinostat 0.039 | tipifarnib 0.007 | [4] 0.008 | [5] -0.06 | [6] 0.019 | [7] -0.025 | vorinostat -0.139 | silmitasertib 0.014 | [8] -0.03 | entospletinib 0.029

SLC35A3 isoform 2 (UniProt Q9Y2D2)
inactive: nilotinib 0.02 | [1] -0.001 | [2] -0.049 | quisinostat -0.241 | tipifarnib 0.069 | [4] 0 | [5] 0.019 | [6] 0.056 | [7] -0.022 | vorinostat 0.091 | silmitasertib -0.07 | [8] 0.019 | entospletinib 0

SLC45A4 isoform 3 (UniProt Q5BKX6)
inactive: nilotinib 0.135 | [1] -0.221 | [2] -0.062 | quisinostat -0.123 | tipifarnib 0.073 | [4] 0.025 | [5] -0.029 | [6] -0.15 | [7] -0.019 | vorinostat 0.117 | silmitasertib 0.08 | [8] -0.041 | entospletinib 0.04

SLC30A10 (UniProt Q6XR72)
inactive: nilotinib 0.017 | [1] -0.086 | dasatinib -0.103 | [2] 0.027 | [3] -0.008 | quisinostat -0.047 | tipifarnib -0.1 | [4] 0.013 | [5] 0.016 | [6] 0.047 | [7] -0.062 | vorinostat 0.024 | silmitasertib -0.033 | [8] 0.031 | entospletinib -0.053

SLC35C1 (UniProt Q96A29)
inactive: nilotinib -0.134 | [1] 0.217 | [2] 0.095 | quisinostat -0.084 | tipifarnib -0.051 | [4] 0.15 | [5] -0.104 | [6] 0.069 | [7] -0.108 | vorinostat -0.305 | silmitasertib 0.042 | [8] 0.036 | entospletinib -0.063

SLC36A4 (UniProt Q6YBV0)
inactive: nilotinib 0.138 | [1] 0.191 | dasatinib -0.174 | [2] 0 | [3] -0.09 | quisinostat 0.01 | tipifarnib -0.084 | [4] -0.009 | [5] -0.014 | [6] 0.055 | vorinostat 0.218 | silmitasertib -0.073 | [8] 0.002 | entospletinib -0.119

SLC9A8 isoform 2 (UniProt Q9Y2E8)
inactive: nilotinib 0 | [1] -0.07 | dasatinib 0.118 | [2] -0.09 | [3] 0.046 | quisinostat -0.041 | tipifarnib 0.067 | [4] 0.106 | [5] 0.058 | [6] 0.01 | vorinostat 0.102 | silmitasertib 0.041 | [8] 0.008

SLC9A1 (UniProt P19634)
inactive: nilotinib -0.098 | [1] 0.117 | dasatinib -0.035 | [2] -0.016 | [3] 0.02 | quisinostat 0.001 | tipifarnib 0.011 | [4] 0.081 | [5] 0.047 | [6] 0.093 | [7] 0.025 | vorinostat 0.13 | silmitasertib -0.022 | [8] 0.026 | entospletinib -0.035

SLC39A10 (UniProt Q9ULF5)
inactive: nilotinib -0.027 | [1] 0.009 | dasatinib 0.059 | [2] 0.003 | [3] -0.017 | quisinostat 0.046 | tipifarnib 0.003 | [4] 0.003 | [5] 0.02 | [6] 0.026 | [7] -0.059 | vorinostat -0.007 | silmitasertib 0.083 | [8] -0.051 | entospletinib -0.075

SLC25A3 isoform 2 (UniProt Q00325)
inactive: nilotinib 0.024 | [1] -0.001 | dasatinib 0.004 | [2] 0.001 | [3] -0.023 | quisinostat -0.065 | tipifarnib 0.013 | [4] 0.014 | [5] -0.023 | [6] 0.008 | [7] 0.017 | vorinostat 0.062 | silmitasertib -0.02 | [8] 0.019 | entospletinib 0.016

SLU7 (UniProt O95391)
inactive: nilotinib -0.052 | [1] 0.045 | dasatinib -0.025 | [2] 0.047 | [3] 0.013 | quisinostat 0.244 | tipifarnib -0.029 | [4] 0.086 | [6] 0.016 | [7] 0.208 | vorinostat 0.012 | silmitasertib -0.037 | [8] 0.046 | entospletinib -0.024

Taken from the listing (two entries):
SLC9A8 isoform 2 (UniProt Q9Y2E8)
inactive: nilotinib 0 | [1] -0.07 | dasatinib 0.118 | [2] -0.09 | [3] 0.046 | quisinostat -0.041 | tipifarnib 0.067 | [4] 0.106 | [5] 0.058 | [6] 0.01 | vorinostat 0.102 | silmitasertib 0.041 | [8] 0.008

SLC9A1 (UniProt P19634)
inactive: nilotinib -0.098 | [1] 0.117 | dasatinib -0.035 | [2] -0.016 | [3] 0.02 | quisinostat 0.001 | tipifarnib 0.011 | [4] 0.081 | [5] 0.047 | [6] 0.093 | [7] 0.025 | vorinostat 0.13 | silmitasertib -0.022 | [8] 0.026 | entospletinib -0.035

The listing continues.

SLC35C2 isoform 3 (UniProt Q9NQQ7)
inactive: nilotinib -0.09 | [1] -0.054 | dasatinib 0.066 | [2] -0.018 | [3] 0.001 | quisinostat 0.022 | tipifarnib 0.152 | [4] -0.021 | [5] -0.046 | [6] 0.05 | vorinostat 0.113 | silmitasertib 0.036 | [8] -0.135 | entospletinib 0.054
